The assay has as its system Salmonella enterica serovar Typhimurium SL1344. In words: bacterial growth OD600 after 18 h with compound and polymyxin B; higher = more bacterial growth (less inhibition). Particulars: 50 µM, Mueller-Hinton broth.

Molecules are shown by their SMILES. The list shows a part of the results. These are raw signals, not scaled to a control.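 In the initial screen, polymyxin B was used at a concentration that permeabilizes Salmonella's outer membrane but not its inner membrane. Maximum growth was set by DMSO wells with or without polymyxin B. Since plates varied, data were ranked per plate, and compounds giving the lowest OD600 advanced as hits.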

Take `COc1ccccc1CC(=O)NC1CC(=O)N(Cc2ccccc2Cl)C1` (stereo unspecified): the “bacterial growth OD600” value (polymyxin B 1 µg/mL) turned out to be 0.651.
On to `COc1ccc(NC(=O)CCC2CCCN(C(=O)c3occc3C)C2)cc1Cl` (stereo unspecified), for which the “bacterial growth OD600” value (polymyxin B 1 µg/mL) was found to be 0.929.
The same measure, in the same setting: the value for `CCOC(=O)C1(CCc2ccccc2)CCCN(C(=O)c2ccc(COC)s2)C1` (stereo unspecified) was 0.007; that for `Cc1ccc(CN2CCC(CN(C)Cc3cccn3-c3nccs3)CC2)o1` was 0.797.
Regarding `O=C(c1coc(COc2cccc(C(F)(F)F)c2)n1)N1CCCCC1CCO` (stereo unspecified), under “polymyxin B 1 µg/mL”, the “bacterial growth OD600” value was 0.827.
For `CCn1nc(C)c(CNCc2cccnc2Oc2ccc(F)cc2F)c1C`, where the note is “polymyxin B 1 µg/mL”, the “bacterial growth OD600” value came out at 0.995.
Turning to `CC(=O)Nc1cc(C(=O)N2CCN(C(=O)c3ccco3)CC2)c2c(c1)nc(C)n2Cc1ccccc1`, under “polymyxin B 0.75 µg/mL”, the “bacterial growth OD600” value amounted to 0.803.
`Cc1nc(C(=O)NC2CC(=O)N(CCCc3ccccc3)C2)cs1` (stereo unspecified): the “bacterial growth OD600” value (polymyxin B 1 µg/mL) was 1.1.
Consider `Cc1ccccc1CCC1CCCN(C(=O)C2(C)CC2)C1` (stereo unspecified), for which the “bacterial growth OD600” value (polymyxin B 0.75 µg/mL) worked out at 0.357.
As to `COc1cc(-c2n[nH]cc2CN(CCO)Cc2ccccc2)cc(OC)c1OC`, for the setting “polymyxin B 1 µg/mL”, the “bacterial growth OD600” value was 1.03.
Consider `O=C(CC(c1ccccc1)c1ccccc1Cl)N1CCN(CCO)CC1` (stereo unspecified), for which the “bacterial growth OD600” value (polymyxin B 1 µg/mL) is 0.936.
As to `Cc1cc(C(=O)N2CCCC(CCC(=O)Nc3ccc(F)cc3C)C2)nc(C)n1` (stereo unspecified), the “bacterial growth OD600” value (polymyxin B 1 µg/mL) came to 0.869.
Consider `COc1cc(=O)n2c(c1C(=O)N(C)Cc1nccs1)CCN(CCC(C)c1ccc(C)o1)CC2` (stereo unspecified), for which, where the note is “polymyxin B 0.75 µg/mL”, the “bacterial growth OD600” value came out at 0.86.
As for `C=CCC(O)(CC=C)CNC(=O)CCC1(Cc2ccc(OC)c3ccccc23)CCC(=O)N1` (stereo unspecified), the “bacterial growth OD600” value (polymyxin B 0.75 µg/mL) stood at 0.846.
Take `CC1CN(c2ccccc2)CCN1C(=O)CC1(c2ccccc2Cl)CC(=O)N(CCN(C)C)C1=O` (stereo unspecified): the “bacterial growth OD600” value (polymyxin B 0.75 µg/mL) turned out to be 0.669.
For the molecule `O=C(CCN1CCCC1=O)NCc1cccnc1N1CCCCCCC1`, where the note is “polymyxin B 0.75 µg/mL”, the “bacterial growth OD600” value was 0.847.
On to `CCC(=O)N(C)C(Cc1ccc(F)cc1F)C1CCN(C(=O)c2ccc(F)c(Cl)c2)CC1` (stereo unspecified), for which, for the setting “polymyxin B 0.75 µg/mL”, the “bacterial growth OD600” value amounted to 0.766.
With `COc1ccc(CNC(=O)CCC2CCCN(CC3CCCCC3)C2)c(OC)c1` (stereo unspecified), for the setting “polymyxin B 0.75 µg/mL”, the “bacterial growth OD600” value was determined as 0.819.
As to `Cc1ccc(OCc2cc(C(=O)N(C)CCC(O)c3ccccc3)no2)cn1` (stereo unspecified), the “bacterial growth OD600” value (polymyxin B 1 µg/mL) is 0.936.
With `CCOc1cccc(CN2CCc3c(C(=O)NCc4ccccc4OC)c(OC)cc(=O)n3CC2)c1`, the “bacterial growth OD600” value (polymyxin B 0.75 µg/mL) worked out at 0.83.
Regarding `COc1cc(Cl)c(CN2CCOc3ccc(CN4C[C@@H](C)O[C@@H](C)C4)cc3C2)cc1OC`, the “bacterial growth OD600” value (polymyxin B 0.75 µg/mL) was found to be 0.039.
Take `C[C@H]1C(=O)N(C)CCN1C(=O)c1cn(Cc2ccccc2Cl)nn1`: the “bacterial growth OD600” value (polymyxin B 1 µg/mL) was found to be 1.12.
With `COCCN1C(=O)CC(CC(=O)N(C)CCOc2ccc(C)cc2)(c2ccccc2F)C1=O` (stereo unspecified), the “bacterial growth OD600” value (polymyxin B 0.75 µg/mL) was determined as 0.825.
For `COc1cccc(CNC(=O)C2CCCN(c3nc(C)c4ccc(S(C)(=O)=O)cc4n3)C2)c1` (stereo unspecified), the “bacterial growth OD600” value (polymyxin B 0.75 µg/mL) was 0.81.
Take `O=C(NCCc1ccccc1)C1CCC(=O)N(Cc2ccc(Cl)cc2)C1` (stereo unspecified): the “bacterial growth OD600” value (polymyxin B 1 µg/mL) was 0.849.
For `Cc1cc(C(=O)NC2CCCN(CC3CCCCC3)C2)n(C)n1` (stereo unspecified), the “bacterial growth OD600” value (polymyxin B 1 µg/mL) came out at 1.03.
In the case of `COCCC(=O)N1CCC(C2CCN(Cc3cccc(F)c3F)CC2)C1` (stereo unspecified), the “bacterial growth OD600” value (polymyxin B 0.75 µg/mL) was 0.841.
As to `CCN1CCN(CC(=O)NCc2cccnc2Oc2ccccc2F)CC1`, the “bacterial growth OD600” value (polymyxin B 1 µg/mL) stood at 1.17.
Turning to `COc1ccc(CCN2CC(NC(=O)c3ccccn3)CC2=O)cc1` (stereo unspecified), the “bacterial growth OD600” value (polymyxin B 1 µg/mL) came to 0.857.
Take `Cc1cccc(CN(C)C2CCCN(CCc3ccccc3)C2)n1` (stereo unspecified): for the setting “polymyxin B 1 µg/mL”, the “bacterial growth OD600” value amounted to 0.829.
On to `CN(C(=O)C1CCCCC1)C1CCCN(Cc2ccccc2F)C1` (stereo unspecified), for which the “bacterial growth OD600” value (polymyxin B 1 µg/mL) amounted to 0.995.

(Values after the supplement of paper PMC12889115.)
